# “And” between values parts separate entries of the source, which are not always exact repeats. Equal values may be shown once. Out of some 400,000 compounds screened, about 13,000 (3.2%) were called active. Inconclusive means that the source gave no clear call. Such entries were picked first, then a sample of the others. The call rests on the fitted dose curve; in most records, active means well fitted cell-killing curve with a large enough effect; inconclusive means small, poorly fitted or top-dose-only effect, or effect the other way; inactive means flat fitted curve, though single readings scatter. Potencies of inconclusive entries are doubtful fits and often do not repeat.
# Assay: qHTS assay for MDR1-selective chemotherapeutics: Primary screen using the drug-selected MDR subline cells KB-V1; further: nearly all actives have a fitted effect of over 60% in size
# Settings: KB-V1 MDR cells viability, CellTiter-Glo, 72 h; activity change, negative = cytotoxicity: at 46.1 µM (top of the series)
# Method in brief: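 Cytotoxicity toward P-gp-expressing KB-V1 cells was determined as loss of CellTiter-Glo luminescence after 72 h at 37 degrees C. Compounds were tested in quantitative HTS format across a concentration range, with curves fitted to normalized data.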
# On the % scale 0 is the no-effect control and ±100 the full control effect; potency means the concentration at half of the fitted maximal effect.
SMILES,"activity change, negative = cytotoxicity",Potency
N#C/C(=C/c1ccc(N2CCOCC2)c([N+](=O)[O-])c1)C(N)=O,inactive: 2.8%,–
Cc1nc(NC(=O)CN(C)S(=O)(=O)c2ccc(Br)cc2)sc1C,–,active: 18.4 µM
c1nc2sc3c(c2c2nnnn12)CCCC3,–,"inconclusive: 29.1 µM [cytotoxic, single point]"
COc1ccccc1/C=C/C=N\N1CCN(Cc2ccccc2Cl)CC1,–,active: 16.4 µM
Cc1oc(-c2ccc(C(=O)Nc3cc(F)ccc3F)cc2)nc1COc1ccccc1,inactive: 0%,–
Cc1cc(C)cc(NC(=S)NC2CC3CCC(C2)N3Cc2ccco2)c1 (stereo not drawn),–,"inconclusive: 6.51 µM [cytotoxic, partial curve]"
O=C(Nc1ccc([N+](=O)[O-])cc1)Nc1ccon1,–,active: 6.51 µM
Cc1ccc(NC(=O)c2ccc(OCC3CCCO3)cc2)cc1Cl (stereo not drawn),–,"inconclusive: 9.2 µM [cytotoxic, partial curve]"
Cn1c(Cc2nc3ccccc3n2C)nc2ccccc21,–,"inconclusive: 5.8 µM [rising, partial curve, poor fit]"
Cc1ccc(OCCSc2ncccn2)c(C)c1,–,"inconclusive: 3.66 µM [rising, full curve]"
O=S(=O)(Cc1ccccc1)C(CCCc1ccccc1)S(=O)(=O)Cc1ccccc1,–,"inconclusive: 23.1 µM [cytotoxic, single point]"
O=C(CN1CCCCC1)Nc1nc(-c2ccc(Cl)cc2)cs1,–,"inconclusive: 29.1 µM [cytotoxic, single point]"
O=C(CCCn1c(=S)[nH]c2cc3c(cc2c1=O)OCO3)N1CCN(c2ncccn2)CC1,–,"inconclusive: 23.1 µM [cytotoxic, single point]"
CCCNC(=O)C1(C)CCN(Cc2ccc(C(=O)OCC)cc2)C1 (stereo not drawn),inactive: -0.619%,–
COc1ccc(NC(=O)/C(C#N)=C/C=C/c2ccco2)cc1,–,active: 13 µM
Cc1nc(C(=O)NCCC(C)C)sc1C1(C)CC(c2ccccc2)=NO1 (stereo not drawn),inactive: -12.6%,–
CCOC(=O)C(NC(=O)c1ccccc1)=C1CCCCC1,–,"inconclusive: 20.6 µM [cytotoxic, single point]"
O=C1/C(=C/c2ccc3c(c2)OCO3)CCC/C1=C\c1ccc2c(c1)OCO2,–,"inconclusive: 18.4 µM [cytotoxic, partial curve, poor fit]"
O=C(Nc1cc([N+](=O)[O-])ccc1Cl)C(Sc1ccccc1)c1ccccc1 (stereo not drawn),–,active: 14.6 µM
COc1ccc(C(=O)N2CCN=C2SC)cc1OC,inactive: 1.25%,–
CN(C)C(CNC(=O)C1CC(=O)N(Cc2ccccc2)C1)c1ccccc1 (stereo not drawn),inactive: -1.35%,–
COc1ccc(OC)c(CN2CCCC(C(=O)c3ccccc3SC)C2)c1 (stereo not drawn),inactive: 2.6%,–
Nc1cc(=O)[nH]c(SCc2nnnn2-c2ccc(Cl)cc2)n1,inactive: -2.1%,–
CCn1c(/C=C/Nc2ccccc2)[n+](CC)c2ccc(Cl)cc21,inactive: -2.23%,–
CCCCCCCCN1C(=O)[C@H](CC(=O)N2CCN(C(=O)OCC)CC2)C[C@@]2(C(=O)OCC)CCCC=C12,–,"inconclusive: 10.3 µM [cytotoxic, partial curve, poor fit]"

SMILES,"activity change, negative = cytotoxicity",Potency
CN(C)c1cccc(C(=O)NNC(=O)/C=C/c2cccs2)c1,inactive: -7.32%,–
Cn1c(SCc2c(Cl)cccc2Cl)nnc1-c1ccc2nonc2c1,inactive: -25.2%,–
CN(Cc1cccnc1)Cc1cn(Cc2ccccc2)nc1-c1ccc2c(c1)OCO2,–,"inconclusive: 7.31 µM [cytotoxic, partial curve]"
Cc1ccc(OCCn2cc(C(=S)N3CCCC3)c3ccccc32)cc1C,–,active: 5.17 µM
COc1ccc(OCC(N)=O)cc1,–,"inconclusive: 23.1 µM [rising, partial curve, poor fit]"
Nc1ccc(C(=O)N2CCCC2)cc1,inactive: 4.79%,–
COc1ccc(-n2cnnc2SCCC#N)cc1,–,"inconclusive: 20.6 µM [cytotoxic, single point]"
CN(C)c1c2ccccc2nc2c(F)c(F)c(F)c(F)c12,inactive: 20.2%,–
O=C(Nc1ccc2nc3ccccc3nc2c1)c1ccc(Br)cc1,–,"inconclusive: 1.64 µM [cytotoxic, full curve]"
Cc1csc(NC(=O)CSc2nccn2C)n1,–,"inconclusive: 29.1 µM [rising, single point]"
Cc1ccc(Nc2nnc(SCc3cc(=O)n4ccsc4n3)s2)c(C)c1,–,"inconclusive: 7.31 µM [cytotoxic, partial curve]"
COc1ccccc1Oc1cc(-n2nc(C)cc2C)ncn1,–,"inconclusive: 20.6 µM [cytotoxic, single point]"
C=CCn1c(SCC(=O)Nc2ccc3c(c2)OCO3)nnc1-c1cc(Br)ccc1O,inactive: -10.8%,–
COc1ccc(OC)c(CNC(=O)CCCn2ccc3cc(S(=O)(=O)N4CCCC4)ccc32)c1,–,"inconclusive: 6.51 µM [cytotoxic, full curve]"
COc1ccc(Cc2nc3ccc(C(=O)N(C)CC4COCCO4)cc3o2)cc1 (stereo not drawn),–,"inconclusive: 0.651 µM [cytotoxic, full curve, poor fit]"
COC(=O)C[C@H]1C[C@@H]2c3cc(NC(=O)Nc4ccc(F)cc4)ccc3O[C@@H]2[C@@H](CO)O1,–,"inconclusive: 25.9 µM [rising, single point]"
COc1cc(-c2noc(-c3ccc(NCc4cccnc4)c([N+](=O)[O-])c3)n2)cc(OC)c1OC,–,active: 25.9 µM
COc1ccc(CNC(=O)c2cccc(C)c2[N+](=O)[O-])cc1,–,active: 23.1 µM
S=c1[nH]nc(CSCc2ccccc2Cl)n1C1CCCCC1,–,"inconclusive: 20.6 µM [cytotoxic, partial curve, poor fit]"
CSCCC(NS(=O)(=O)c1cccs1)C(=O)NCc1ccc(C)cc1 (stereo not drawn),–,"inconclusive: 16.4 µM [cytotoxic, single point]"
N#C/C(=C/c1cn(Cc2ccc(F)cc2)c2ccccc12)C(=O)Nc1cccc(Cl)c1,–,"inconclusive: 29.1 µM [cytotoxic, single point]"
COc1ccc(-n2c(COc3ccc(Cl)cc3)nnc2SCc2ccc(C#N)cc2)cc1,–,"inconclusive: 29.1 µM [cytotoxic, single point]"
CN(CC(=O)Nc1ccccc1[N+](=O)[O-])Cc1ccc(Br)cc1,–,"inconclusive: 16.4 µM [cytotoxic, single point]"
Nc1nc(=S)c2[nH]c(=S)[nH]c2[nH]1,–,"inconclusive: 29.1 µM [cytotoxic, single point]"
c1ccc(CNc2nc(-c3cccs3)nc3ccccc23)nc1,–,"inconclusive: 16.4 µM [cytotoxic, partial curve]"

# Quoted from the listing.
# activity change, negative = cytotoxicity, `CN(C)c1c2ccccc2nc2c(F)c(F)c(F)c(F)c12` is entered as inactive: 20.2%
# Potency, `COc1ccc(-n2cnnc2SCCC#N)cc1` is entered as inconclusive: 20.6 µM [cytotoxic, single point]
# Potency, `Cc1csc(NC(=O)CSc2nccn2C)n1` is entered as inconclusive: 29.1 µM [rising, single point]

# Continuation:

SMILES,"activity change, negative = cytotoxicity",Potency
COc1ccc(-c2noc(CN(C)CCC3CCCCO3)n2)cc1 (stereo not drawn),–,"inconclusive: 29.1 µM [cytotoxic, single point]"
Cc1ccc(COc2ccc(Br)cc2/C=N/O)cc1,–,"inconclusive: 18.4 µM [cytotoxic, single point]"
CCOC(=O)N1CCC(NC(=O)c2ccc3c(c2)N=C(C)c2c(C)ccc(C)c2S3)CC1,–,active: 5.17 µM
CCOc1ccc(OCC)c(NC(=O)Cn2ncc3c4ccccc4n(Cc4ccccc4)c3c2=O)c1,–,"inconclusive: 18.4 µM [rising, single point]"
CN1CCN(c2oc(/C=C/c3ccccc3)nc2C#N)CC1,inactive: 28.9%,–
CCOc1ccc(-c2n[nH]c(C)c2-c2ccccn2)c(O)c1,–,"inconclusive: 23.1 µM [cytotoxic, partial curve]"
CN1CCC(=O)N(CCSc2ccccc2)CC1,–,"inconclusive: 29.1 µM [rising, single point]"
COc1ccc(CN2CCN(Cc3cccc(OC)c3)C(CCO)C2)cc1 (stereo not drawn),–,"inconclusive: 25.9 µM [cytotoxic, single point]"
CC(=O)Oc1ccc(Cn2c(C)c(C(=O)NCc3ccc(C#N)cc3)sc2=O)cc1,–,"inconclusive: 18.4 µM [cytotoxic, single point]"
COc1ccc(OC)c(CN2CCN(C(=O)c3cccc(S(=O)(=O)Nc4ccc(F)cc4)c3)CC2)c1,–,active: 14.6 µM
CCOC(=O)N1CCN(C(=O)CCCOc2ccccc2)CC1,inactive: -25.8%,–
COc1ccc(C2Nc3ccccc3C(=O)N2Cc2ccco2)cc1CN1C(=O)c2ccccc2C1=O (stereo not drawn),–,"inconclusive: 9.2 µM [cytotoxic, partial curve] and inconclusive: 32.6 µM [cytotoxic, partial curve, poor fit]"
CC(=O)Nc1ccc(/C=N/Nc2nc3ccccc3[nH]2)cc1,inactive: -9.41%,–
Cc1nc2nc(NCc3cccc(Br)c3)[nH]n2c(=O)c1Cc1ccccc1,–,"inconclusive: 29.1 µM [rising, single point]"
Cc1n[nH]c(=S)n1-c1cccc(Cl)c1,inactive: -0.455%,–
O=[N+]([O-])c1cc(O)c2ncccc2c1,–,active: 18.4 µM
O=S(=O)(NCc1ccccc1)c1ccc(NC(=S)NCc2ccco2)cc1,–,"inconclusive: 20.6 µM [cytotoxic, single point]"
COc1ccc2oc(=O)c(C(=O)NCCc3c(C)[nH]c4c(Cl)cccc34)cc2c1,–,"inconclusive: 3.26 µM [cytotoxic, partial curve, poor fit]"
NC(=O)c1cc(Sc2ccccc2)nc2ccccc12,inactive: 6.27%,–
CCOC(=O)c1c(CC(C)C)csc1NC(=O)c1ccccc1C(=O)O,inactive: 19.4%,–
COc1ccc(CNC(=O)C(OC(=O)c2nsc(Cl)c2Cl)C(C)C)cc1 (stereo not drawn),–,"inconclusive: 29.1 µM [rising, single point]"
N#CCCN1CCN(C(=S)c2ccc(-c3cc(Cl)ccc3Cl)o2)CC1,–,active: 6.51 µM
CCOc1ccc(N(CC(=O)NC2CCCC(C)C2C)S(=O)(=O)c2c(C)noc2C)cc1 (stereo not drawn),–,"inconclusive: 3.66 µM [cytotoxic, full curve]"

# Reference: PubChem BioAssay AID1347076 (National Center for Advancing Translational Sciences (NCATS), 2019)
